Measurements from publication PMC8321694.
These are yes or no findings as the source states them, for the method shown. For part of these data: Binding seen in cells or lysates may run through a third protein. Some binding calls cover weakened binding; strength is not graded here. For part of these data: Tags and fused reporters may be left off the sequences shown.

Chains of the proteins cited; added tags and fusions are not shown.
UniProt P47110: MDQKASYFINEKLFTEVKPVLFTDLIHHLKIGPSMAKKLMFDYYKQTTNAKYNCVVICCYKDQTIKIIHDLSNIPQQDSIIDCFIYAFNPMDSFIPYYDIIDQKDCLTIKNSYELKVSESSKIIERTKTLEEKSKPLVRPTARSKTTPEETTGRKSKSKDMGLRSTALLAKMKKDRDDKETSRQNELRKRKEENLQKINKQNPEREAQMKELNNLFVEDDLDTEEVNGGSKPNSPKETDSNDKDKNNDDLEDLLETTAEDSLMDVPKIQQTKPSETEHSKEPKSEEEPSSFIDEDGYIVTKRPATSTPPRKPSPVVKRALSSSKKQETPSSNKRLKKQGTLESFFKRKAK

T1: LexA-Pol31 (wild-type, full length) (budding yeast) (UniProt P46957)
T1 sequence: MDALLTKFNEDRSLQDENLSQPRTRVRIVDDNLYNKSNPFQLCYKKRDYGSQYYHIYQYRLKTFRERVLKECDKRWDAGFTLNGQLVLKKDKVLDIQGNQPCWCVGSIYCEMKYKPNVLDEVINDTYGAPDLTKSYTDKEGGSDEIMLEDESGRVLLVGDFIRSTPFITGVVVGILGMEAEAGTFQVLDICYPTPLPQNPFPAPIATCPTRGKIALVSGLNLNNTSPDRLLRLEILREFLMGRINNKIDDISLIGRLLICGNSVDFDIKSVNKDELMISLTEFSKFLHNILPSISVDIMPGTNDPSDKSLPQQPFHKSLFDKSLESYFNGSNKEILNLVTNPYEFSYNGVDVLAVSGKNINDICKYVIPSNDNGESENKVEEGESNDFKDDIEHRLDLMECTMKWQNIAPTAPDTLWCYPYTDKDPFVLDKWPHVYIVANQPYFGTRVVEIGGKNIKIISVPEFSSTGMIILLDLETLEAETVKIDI

T2: LexA-Pol31-T415A (budding yeast) (UniProt P46957)
T2 sequence: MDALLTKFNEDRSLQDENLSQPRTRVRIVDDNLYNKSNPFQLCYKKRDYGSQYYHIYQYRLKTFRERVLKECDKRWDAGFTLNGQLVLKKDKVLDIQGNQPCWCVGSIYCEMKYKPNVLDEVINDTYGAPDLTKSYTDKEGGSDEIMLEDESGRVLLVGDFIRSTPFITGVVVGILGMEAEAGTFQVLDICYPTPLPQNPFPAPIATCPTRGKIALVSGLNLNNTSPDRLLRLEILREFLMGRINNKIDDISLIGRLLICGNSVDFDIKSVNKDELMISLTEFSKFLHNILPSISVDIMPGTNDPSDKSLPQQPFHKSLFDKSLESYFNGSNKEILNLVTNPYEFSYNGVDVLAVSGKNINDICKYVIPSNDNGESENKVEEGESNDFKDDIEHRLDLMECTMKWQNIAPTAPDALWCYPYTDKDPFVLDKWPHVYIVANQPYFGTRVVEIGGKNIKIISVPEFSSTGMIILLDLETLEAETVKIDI

T3: LexA-Pol31-W417A (budding yeast) (UniProt P46957)
T3 sequence: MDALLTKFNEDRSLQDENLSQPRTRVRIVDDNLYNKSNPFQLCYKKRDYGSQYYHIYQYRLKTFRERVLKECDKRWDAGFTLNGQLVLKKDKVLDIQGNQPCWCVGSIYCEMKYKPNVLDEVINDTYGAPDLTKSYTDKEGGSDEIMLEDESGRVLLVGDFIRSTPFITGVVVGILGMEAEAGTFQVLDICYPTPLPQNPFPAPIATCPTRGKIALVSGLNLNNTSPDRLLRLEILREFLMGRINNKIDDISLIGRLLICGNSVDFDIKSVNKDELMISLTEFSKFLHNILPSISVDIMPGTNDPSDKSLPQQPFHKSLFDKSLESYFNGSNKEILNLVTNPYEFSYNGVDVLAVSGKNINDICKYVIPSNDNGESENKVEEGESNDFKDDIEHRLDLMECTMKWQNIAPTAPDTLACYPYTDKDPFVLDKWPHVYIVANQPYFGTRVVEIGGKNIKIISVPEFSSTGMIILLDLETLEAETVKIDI

T4: MBP-Pol3-CTD, CysA + CysB (Pol3 991-1097) (budding yeast) (UniProt P15436)
T4 sequence: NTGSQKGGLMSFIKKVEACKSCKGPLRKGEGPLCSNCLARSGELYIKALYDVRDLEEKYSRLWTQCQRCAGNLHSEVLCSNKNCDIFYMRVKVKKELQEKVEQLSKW


Columns and labels:
[1] = molecular target: T1, LexA-Pol31 (wild-type, full length) (budding yeast); test: two-hybrid; LexA bait (pGAL-LexA) and B42 prey (pJG4-7), lacZ reporter pSH18-34; 2% galactose for 6 h; quantitative liquid β-galactosidase assay of cell extracts; pol32Δ strain GA-6292 (no endogenous Pol32)
[2] = molecular target: T2, LexA-Pol31-T415A (budding yeast); test: as above
[3] = molecular target: T3, LexA-Pol31-W417A (budding yeast); test: as above
[4] = molecular target: T1, LexA-Pol31 (wild-type, full length) (budding yeast); test: two-hybrid; LexA bait (pGAL-LexA) and B42 prey (pJG4-7), lacZ reporter pSH18-34; 2% galactose for 6 h; quantitative liquid β-galactosidase assay of cell extracts; wild-type strain GA-1981 (endogenous Pol32 present)
[5] = molecular target: T2, LexA-Pol31-T415A (budding yeast); test: as above
[6] = molecular target: T3, LexA-Pol31-W417A (budding yeast); test: as above
[7] = molecular target: T1, LexA-Pol31 (wild-type, full length) (budding yeast); test: two-hybrid; LexA bait (pGAL-LexA) and B42 prey (pJG4-7), lacZ reporter pSH18-34; 2% galactose for 6 h; quantitative liquid β-galactosidase assay of cell extracts; pol32Δ strain GA-6292 (no endogenous Pol32); remark: listed apart in the source
[8] = molecular target: T3, LexA-Pol31-W417A (budding yeast); test: as above; remark: listed apart in the source
[9] = molecular target: T4, MBP-Pol3-CTD, CysA + CysB (Pol3 991-1097) (budding yeast); test: pull-down; E. coli-expressed MBP-Pol3-CTD on Amylose beads; whole yeast cell extracts (wild-type or pol32Δ cells grown at 30°C or 16°C) with over-expressed HA- or LexA-Pol31 derivatives; 1.5 h at 4°C; 50 mM Hepes pH 7.5, 20 mM NaCl, 1 mM EDTA, 0.1% Triton X-100; Western blot; only the target purified

Row | Molecule | binding [4] | binding [6] | binding [9] | also measured
1 | HA-Pol31 (wild-type, full-length HA-tagged Pol31) (protein, UniProt P46957 1-487) MDALLTKFNEDRSLQDENLSQPRTRVRIVDDNLYNKSNPFQLCYKKRDYGSQYYHIYQYRLKTFRERVLKECDKRWDAGFTLNGQLVLKKDKVLDIQGNQPCWCVGSIYCEMKYKPNVLDEVINDTYGAPDLTKSYTDKEGGSDEIMLEDESGRVLLVGDFIRSTPFITGVVVGILGMEAEAGTFQVLDICYPTPLPQNPFPAPIATCPTRGKIALVSGLNLNNTSPDRLLRLEILREFLMGRINNKIDDISLIGRLLICGNSVDFDIKSVNKDELMISLTEFSKFLHNILPSISVDIMPGTNDPSDKSLPQQPFHKSLFDKSLESYFNGSNKEILNLVTNPYEFSYNGVDVLAVSGKNINDICKYVIPSNDNGESENKVEEGESNDFKDDIEHRLDLMECTMKWQNIAPTAPDTLWCYPYTDKDPFVLDKWPHVYIVANQPYFGTRVVEIGGKNIKIISVPEFSSTGMIILLDLETLEAETVKIDI | – | – | binds | –
2 | LexA-Pol31 (wild-type, full length) (protein, UniProt P46957 1-487) MDALLTKFNEDRSLQDENLSQPRTRVRIVDDNLYNKSNPFQLCYKKRDYGSQYYHIYQYRLKTFRERVLKECDKRWDAGFTLNGQLVLKKDKVLDIQGNQPCWCVGSIYCEMKYKPNVLDEVINDTYGAPDLTKSYTDKEGGSDEIMLEDESGRVLLVGDFIRSTPFITGVVVGILGMEAEAGTFQVLDICYPTPLPQNPFPAPIATCPTRGKIALVSGLNLNNTSPDRLLRLEILREFLMGRINNKIDDISLIGRLLICGNSVDFDIKSVNKDELMISLTEFSKFLHNILPSISVDIMPGTNDPSDKSLPQQPFHKSLFDKSLESYFNGSNKEILNLVTNPYEFSYNGVDVLAVSGKNINDICKYVIPSNDNGESENKVEEGESNDFKDDIEHRLDLMECTMKWQNIAPTAPDTLWCYPYTDKDPFVLDKWPHVYIVANQPYFGTRVVEIGGKNIKIISVPEFSSTGMIILLDLETLEAETVKIDI | – | – | binds | –
3 | HA-Pol31-W417A (full length HA-tagged Pol31-W417) (protein, UniProt P46957 1-487) MDALLTKFNEDRSLQDENLSQPRTRVRIVDDNLYNKSNPFQLCYKKRDYGSQYYHIYQYRLKTFRERVLKECDKRWDAGFTLNGQLVLKKDKVLDIQGNQPCWCVGSIYCEMKYKPNVLDEVINDTYGAPDLTKSYTDKEGGSDEIMLEDESGRVLLVGDFIRSTPFITGVVVGILGMEAEAGTFQVLDICYPTPLPQNPFPAPIATCPTRGKIALVSGLNLNNTSPDRLLRLEILREFLMGRINNKIDDISLIGRLLICGNSVDFDIKSVNKDELMISLTEFSKFLHNILPSISVDIMPGTNDPSDKSLPQQPFHKSLFDKSLESYFNGSNKEILNLVTNPYEFSYNGVDVLAVSGKNINDICKYVIPSNDNGESENKVEEGESNDFKDDIEHRLDLMECTMKWQNIAPTAPDTLACYPYTDKDPFVLDKWPHVYIVANQPYFGTRVVEIGGKNIKIISVPEFSSTGMIILLDLETLEAETVKIDI | – | – | binds | –

Second part, led by results:

Row | binding [4] | binding [6] | binding [9] | Molecule | also measured
4 | binds | binds | – | Pol32 N terminus (aa 1–350), two-hybrid prey (from UniProt P47110 1-350) (domain or fragment) | binding [1]: binds; binding [2]: binds; binding [3]: binds; binding [5]: binds
5 | binds | binds | – | Pol3 C terminus (991-1097) bearing the paired CysA and CysB domains, two-hybrid prey (domain or fragment, UniProt P15436 991-1097) NTGSQKGGLMSFIKKVEACKSCKGPLRKGEGPLCSNCLARSGELYIKALYDVRDLEEKYSRLWTQCQRCAGNLHSEVLCSNKNCDIFYMRVKVKKELQEKVEQLSKW | binding [7]: binds; binding [8]: binds
6 | binds | binds | – | Pol3 CysB domain (1032-1097), two-hybrid prey (domain or fragment, UniProt P15436 1032-1097) GELYIKALYDVRDLEEKYSRLWTQCQRCAGNLHSEVLCSNKNCDIFYMRVKVKKELQEKVEQLSKW | binding [7]: binds; binding [8]: binds
7 | – | – | binds | LexA-Pol31-W417A (protein, UniProt P46957 1-487) MDALLTKFNEDRSLQDENLSQPRTRVRIVDDNLYNKSNPFQLCYKKRDYGSQYYHIYQYRLKTFRERVLKECDKRWDAGFTLNGQLVLKKDKVLDIQGNQPCWCVGSIYCEMKYKPNVLDEVINDTYGAPDLTKSYTDKEGGSDEIMLEDESGRVLLVGDFIRSTPFITGVVVGILGMEAEAGTFQVLDICYPTPLPQNPFPAPIATCPTRGKIALVSGLNLNNTSPDRLLRLEILREFLMGRINNKIDDISLIGRLLICGNSVDFDIKSVNKDELMISLTEFSKFLHNILPSISVDIMPGTNDPSDKSLPQQPFHKSLFDKSLESYFNGSNKEILNLVTNPYEFSYNGVDVLAVSGKNINDICKYVIPSNDNGESENKVEEGESNDFKDDIEHRLDLMECTMKWQNIAPTAPDTLACYPYTDKDPFVLDKWPHVYIVANQPYFGTRVVEIGGKNIKIISVPEFSSTGMIILLDLETLEAETVKIDI | –
